From PMC5253420
Numbering of substitutions follows the chain as printed. No constants are given. Whether binding was seen depends on the method and setting. Binding seen in cells or lysates may run through a third protein. For some of these results: Binding calls can cover weak binding; strength is not graded here. For some of these results: Where a sequence is shown, tags or fusion partners need not be part of it. Values belong to the substance of their own block, whether it stands above or below them.

Assays:
[1] = target: T1, HK2 T473A (phosphorylation-deficient mutant), mouse, in pcDNA4-Myc/His (mouse) (UniProt O08528); assay: co-IP; 293T cells transfected with HA-PHLPP1 together with WT, T473A or T473D HK2 and Flag-Akt; HK2 antibody precipitate blotted for PHLPP1, HK2 and Akt
T1 sequence: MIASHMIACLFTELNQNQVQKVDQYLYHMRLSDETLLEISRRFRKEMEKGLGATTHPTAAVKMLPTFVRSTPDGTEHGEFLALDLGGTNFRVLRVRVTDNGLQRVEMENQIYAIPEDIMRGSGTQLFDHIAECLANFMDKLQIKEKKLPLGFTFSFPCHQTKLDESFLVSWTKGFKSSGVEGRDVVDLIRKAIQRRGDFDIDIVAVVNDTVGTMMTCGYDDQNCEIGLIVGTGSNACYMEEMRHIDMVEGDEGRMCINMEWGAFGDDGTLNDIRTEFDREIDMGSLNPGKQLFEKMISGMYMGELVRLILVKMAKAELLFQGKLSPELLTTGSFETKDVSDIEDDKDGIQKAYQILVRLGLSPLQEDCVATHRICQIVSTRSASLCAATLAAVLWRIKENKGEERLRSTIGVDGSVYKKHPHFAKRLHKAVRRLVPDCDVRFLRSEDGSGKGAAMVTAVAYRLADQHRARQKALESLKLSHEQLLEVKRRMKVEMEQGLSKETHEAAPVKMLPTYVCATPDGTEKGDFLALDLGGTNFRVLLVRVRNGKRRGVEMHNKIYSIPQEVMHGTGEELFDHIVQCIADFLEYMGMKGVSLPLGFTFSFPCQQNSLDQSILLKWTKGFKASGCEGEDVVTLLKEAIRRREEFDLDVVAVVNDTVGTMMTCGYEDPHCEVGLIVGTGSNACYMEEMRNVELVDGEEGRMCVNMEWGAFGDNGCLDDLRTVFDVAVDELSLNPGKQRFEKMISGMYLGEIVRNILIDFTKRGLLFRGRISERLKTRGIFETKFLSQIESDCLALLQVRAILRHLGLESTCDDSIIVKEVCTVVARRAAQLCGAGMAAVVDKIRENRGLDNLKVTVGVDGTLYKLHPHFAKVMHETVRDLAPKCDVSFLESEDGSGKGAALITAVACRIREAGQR

[2] = target: T2, HK2 T473D (phospho-mimetic mutant), mouse, in pcDNA4-Myc/His (mouse) (UniProt O08528); assay: as above
T2 sequence: T1 sequence with A473D

[3] = target: T1, HK2 T473A (phosphorylation-deficient mutant), mouse, in pcDNA4-Myc/His (mouse); assay: co-IP; 293T cells transfected with WT, T473A or T473D HK2, control condition; lysates (1% Triton X-100 lysis buffer) precipitated with the HK2 antibody and protein A/G agarose at 4 °C overnight; endogenous Akt detected by Western blot
[4] = target: T2, HK2 T473D (phospho-mimetic mutant), mouse, in pcDNA4-Myc/His (mouse); assay: as above
[5] = target: T3, endogenous hexokinase 2 (HK2), SW480 cells (human (endogenous in SW480)) (UniProt P52789); assay: co-IP; SW480 cells under regular growth condition, cytosolic fraction; precipitated with the HK2 antibody (mock: protein A/G beads alone); blots for PHLPP1, PHLPP2, HK2 and Akt
T3 sequence: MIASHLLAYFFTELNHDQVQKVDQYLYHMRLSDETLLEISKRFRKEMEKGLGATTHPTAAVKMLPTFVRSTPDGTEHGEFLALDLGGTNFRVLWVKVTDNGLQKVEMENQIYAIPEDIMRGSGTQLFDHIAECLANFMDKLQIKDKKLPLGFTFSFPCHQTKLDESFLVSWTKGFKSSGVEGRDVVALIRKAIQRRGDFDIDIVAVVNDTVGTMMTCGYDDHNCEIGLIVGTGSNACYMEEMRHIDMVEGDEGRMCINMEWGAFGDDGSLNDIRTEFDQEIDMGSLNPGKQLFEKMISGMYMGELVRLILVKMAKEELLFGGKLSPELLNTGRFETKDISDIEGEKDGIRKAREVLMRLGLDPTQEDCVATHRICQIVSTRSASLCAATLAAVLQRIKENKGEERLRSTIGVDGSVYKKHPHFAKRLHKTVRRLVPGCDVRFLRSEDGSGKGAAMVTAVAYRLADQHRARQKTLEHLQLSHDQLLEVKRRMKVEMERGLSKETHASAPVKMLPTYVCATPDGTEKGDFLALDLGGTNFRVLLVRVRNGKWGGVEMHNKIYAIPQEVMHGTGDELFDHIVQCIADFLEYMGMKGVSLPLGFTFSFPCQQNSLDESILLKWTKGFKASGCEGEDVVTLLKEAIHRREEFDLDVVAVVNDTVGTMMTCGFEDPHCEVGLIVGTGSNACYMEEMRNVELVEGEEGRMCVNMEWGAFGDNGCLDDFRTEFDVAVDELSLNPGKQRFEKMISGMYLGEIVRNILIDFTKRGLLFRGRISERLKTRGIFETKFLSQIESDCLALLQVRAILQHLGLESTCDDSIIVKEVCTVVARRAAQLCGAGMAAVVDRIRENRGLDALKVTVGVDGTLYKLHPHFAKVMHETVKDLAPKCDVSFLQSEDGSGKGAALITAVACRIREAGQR

[6] = target: T3, endogenous hexokinase 2 (HK2), SW480 cells (human (endogenous in SW480)); assay: co-IP; SW480 cells under regular growth condition, mitochondrial fraction; precipitated with the HK2 antibody (mock: protein A/G beads alone); blots for PHLPP1, PHLPP2, HK2 and Akt
[7] = target: T3, endogenous hexokinase 2 (HK2), SW480 cells (human (endogenous in SW480)); assay: condition: only cells treated with Akt inhibitor VIII (1 μM, 16 h); co-IP; SW480 cells treated with Akt-VIII for 16 h, fractionated into cytosolic and mitochondrial fractions; precipitated with the HK2 antibody; blots for PHLPP1, PHLPP2, HK2 and Akt

binding [1]: binds weakly | binding [2]: binds weakly
Substance: Flag-Akt (enzyme)

binding [3]: no binding | binding [4]: no binding
Substance: endogenous Akt (293T cells) (human (endogenous in 293T)) (enzyme)

binding [6]: binds | binding [7]: no binding
Substance: endogenous Akt (SW480 cells) (human (endogenous in SW480)) (enzyme)
binding [5]: no binding (only in the cytosolic fraction)
